In experiment [1] the target is T1, steroid and xenobiotic receptor (SXR) (human (endogenous in LS180 and HepG2)) (UniProt O75469).
T1 sequence: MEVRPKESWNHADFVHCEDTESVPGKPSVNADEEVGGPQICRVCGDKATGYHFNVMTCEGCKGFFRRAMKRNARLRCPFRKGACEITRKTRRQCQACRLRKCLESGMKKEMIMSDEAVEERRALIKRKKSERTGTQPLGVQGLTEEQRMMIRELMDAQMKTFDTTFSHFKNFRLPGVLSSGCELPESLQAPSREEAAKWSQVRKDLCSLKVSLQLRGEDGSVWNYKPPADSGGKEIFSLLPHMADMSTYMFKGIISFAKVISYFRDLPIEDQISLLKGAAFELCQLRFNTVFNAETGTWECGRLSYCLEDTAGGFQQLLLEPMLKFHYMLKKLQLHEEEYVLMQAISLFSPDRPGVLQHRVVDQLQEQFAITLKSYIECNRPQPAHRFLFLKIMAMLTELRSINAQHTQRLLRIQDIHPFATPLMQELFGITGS
Description: co-IP; non-stimulated LS180 and HepG2 cells (vehicle); cell extracts precipitated with anti-SXR, blot with anti-RXR.

Experiment [2] concerns the target T1, steroid and xenobiotic receptor (SXR) (human (endogenous in LS180 and HepG2)). As to the kind of experiment: condition: only cells treated with 1 μg/ml CPT-11 for 4 h; co-IP; LS180 and HepG2 cells treated with 1 μg/ml CPT-11 for 4 h; cell extracts precipitated with anti-SXR, blot with anti-RXR; CPT-11 added during immunoprecipitation and washing.
Experiment [3] has the same target. Description: co-IP; LS180 and HepG2 cells treated with 10 μM rifampicin or 10 ng/ml SN-38 for 4 h; cell extracts precipitated with anti-SXR and protein G sepharose overnight at 4°C, blot with anti-RXR; drug added during immunoprecipitation and washing; lysis buffer 20 mM Hepes pH 8, 100 mM NaCl, 0.1% nonidet P-40, 0.25% sodium deoxycholate.

Results are given in words; binding and its absence hold for the method and conditions named. In cells and extracts the contact can be indirect. For part of these data: Binding calls can cover weak binding; strength is not graded here.

With “retinoid X receptor (RXR) (human (endogenous in LS180 and HepG2))”, the values for the binding entry in experiment [1], in experiment [2] and in experiment [3] were “binds weakly”, “no binding” and “binds”, respectively.

(Values after article PMC3144021.)
